The values that follow come from PMC5465499.

By UniProt entry, the sequences of proteins in these tests, tags left out. Where a name states a change or a piece, a line headed by the entry shows the natural chain unless it says otherwise. Chains listed by the source or under a name are the forms on record and can include a tag or linker. Residues count along the entry.
UniProt Q9EP80: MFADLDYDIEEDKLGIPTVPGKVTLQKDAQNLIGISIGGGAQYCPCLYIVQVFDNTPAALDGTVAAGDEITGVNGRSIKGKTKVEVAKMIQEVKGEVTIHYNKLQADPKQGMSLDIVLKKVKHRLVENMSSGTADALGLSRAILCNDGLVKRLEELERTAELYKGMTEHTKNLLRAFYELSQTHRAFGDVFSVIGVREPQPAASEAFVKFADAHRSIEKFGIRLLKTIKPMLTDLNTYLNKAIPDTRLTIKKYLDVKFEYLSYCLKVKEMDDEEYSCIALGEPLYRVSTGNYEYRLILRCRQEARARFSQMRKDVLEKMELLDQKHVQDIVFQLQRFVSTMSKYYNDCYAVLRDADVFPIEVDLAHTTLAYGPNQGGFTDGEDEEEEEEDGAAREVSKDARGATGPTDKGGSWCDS
FLAG-PICK1 Δ380–390 (Q9EP80, form named): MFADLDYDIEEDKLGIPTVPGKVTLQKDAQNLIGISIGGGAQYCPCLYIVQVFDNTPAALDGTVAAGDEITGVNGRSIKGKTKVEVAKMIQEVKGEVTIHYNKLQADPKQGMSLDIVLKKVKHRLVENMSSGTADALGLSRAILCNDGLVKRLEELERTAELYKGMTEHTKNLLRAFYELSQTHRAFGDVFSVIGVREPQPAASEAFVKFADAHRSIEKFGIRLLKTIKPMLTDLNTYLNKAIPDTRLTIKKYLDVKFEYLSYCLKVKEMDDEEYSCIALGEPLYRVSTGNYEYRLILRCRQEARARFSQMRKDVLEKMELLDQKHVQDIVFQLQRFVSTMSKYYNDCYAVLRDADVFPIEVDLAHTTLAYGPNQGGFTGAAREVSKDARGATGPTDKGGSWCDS
UniProt Q9UKV8: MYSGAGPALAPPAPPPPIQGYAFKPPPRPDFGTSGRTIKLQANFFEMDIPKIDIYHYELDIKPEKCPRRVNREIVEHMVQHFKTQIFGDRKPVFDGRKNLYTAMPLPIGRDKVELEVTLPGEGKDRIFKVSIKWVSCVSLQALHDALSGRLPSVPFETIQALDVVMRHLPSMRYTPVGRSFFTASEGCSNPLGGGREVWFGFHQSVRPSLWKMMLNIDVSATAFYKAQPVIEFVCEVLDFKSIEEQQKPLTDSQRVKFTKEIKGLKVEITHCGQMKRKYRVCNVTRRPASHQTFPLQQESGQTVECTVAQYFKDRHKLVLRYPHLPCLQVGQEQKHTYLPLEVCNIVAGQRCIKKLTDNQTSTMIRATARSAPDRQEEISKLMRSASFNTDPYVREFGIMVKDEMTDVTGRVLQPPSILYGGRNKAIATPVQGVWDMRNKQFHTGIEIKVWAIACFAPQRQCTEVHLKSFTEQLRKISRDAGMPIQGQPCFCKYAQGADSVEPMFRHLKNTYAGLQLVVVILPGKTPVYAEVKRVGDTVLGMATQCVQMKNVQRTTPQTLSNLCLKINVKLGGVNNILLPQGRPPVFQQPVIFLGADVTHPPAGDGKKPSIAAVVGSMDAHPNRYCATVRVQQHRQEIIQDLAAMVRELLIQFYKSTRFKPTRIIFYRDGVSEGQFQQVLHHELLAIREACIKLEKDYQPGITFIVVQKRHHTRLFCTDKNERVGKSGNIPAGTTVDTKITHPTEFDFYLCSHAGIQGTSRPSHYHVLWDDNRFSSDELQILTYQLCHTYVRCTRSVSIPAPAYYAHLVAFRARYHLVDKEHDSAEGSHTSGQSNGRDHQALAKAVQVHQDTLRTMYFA
UniProt P19491, residues 22-883: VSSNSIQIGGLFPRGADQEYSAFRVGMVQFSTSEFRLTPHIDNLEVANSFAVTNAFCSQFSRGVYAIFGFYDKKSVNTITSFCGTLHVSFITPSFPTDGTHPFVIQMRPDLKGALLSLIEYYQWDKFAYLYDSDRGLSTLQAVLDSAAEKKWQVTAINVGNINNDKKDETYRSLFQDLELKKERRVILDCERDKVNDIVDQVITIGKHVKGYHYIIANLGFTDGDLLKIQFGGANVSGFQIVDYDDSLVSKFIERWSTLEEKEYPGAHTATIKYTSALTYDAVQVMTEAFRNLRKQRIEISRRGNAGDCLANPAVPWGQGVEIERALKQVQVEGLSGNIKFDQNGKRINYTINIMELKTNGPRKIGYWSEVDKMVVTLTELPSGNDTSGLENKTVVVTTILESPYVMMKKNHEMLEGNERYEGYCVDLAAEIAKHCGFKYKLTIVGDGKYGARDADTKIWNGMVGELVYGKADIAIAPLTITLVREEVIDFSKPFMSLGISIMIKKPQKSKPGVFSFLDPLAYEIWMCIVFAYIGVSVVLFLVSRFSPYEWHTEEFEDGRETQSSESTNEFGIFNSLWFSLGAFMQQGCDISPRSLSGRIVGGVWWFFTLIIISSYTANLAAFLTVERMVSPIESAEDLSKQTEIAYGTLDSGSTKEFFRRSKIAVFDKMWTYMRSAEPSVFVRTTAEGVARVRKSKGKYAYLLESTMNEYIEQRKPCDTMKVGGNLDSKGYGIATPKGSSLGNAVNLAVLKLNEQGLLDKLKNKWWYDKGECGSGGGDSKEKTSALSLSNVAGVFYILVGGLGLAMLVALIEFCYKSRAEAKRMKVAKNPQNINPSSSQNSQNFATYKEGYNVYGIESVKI
UniProt Q9QZ81: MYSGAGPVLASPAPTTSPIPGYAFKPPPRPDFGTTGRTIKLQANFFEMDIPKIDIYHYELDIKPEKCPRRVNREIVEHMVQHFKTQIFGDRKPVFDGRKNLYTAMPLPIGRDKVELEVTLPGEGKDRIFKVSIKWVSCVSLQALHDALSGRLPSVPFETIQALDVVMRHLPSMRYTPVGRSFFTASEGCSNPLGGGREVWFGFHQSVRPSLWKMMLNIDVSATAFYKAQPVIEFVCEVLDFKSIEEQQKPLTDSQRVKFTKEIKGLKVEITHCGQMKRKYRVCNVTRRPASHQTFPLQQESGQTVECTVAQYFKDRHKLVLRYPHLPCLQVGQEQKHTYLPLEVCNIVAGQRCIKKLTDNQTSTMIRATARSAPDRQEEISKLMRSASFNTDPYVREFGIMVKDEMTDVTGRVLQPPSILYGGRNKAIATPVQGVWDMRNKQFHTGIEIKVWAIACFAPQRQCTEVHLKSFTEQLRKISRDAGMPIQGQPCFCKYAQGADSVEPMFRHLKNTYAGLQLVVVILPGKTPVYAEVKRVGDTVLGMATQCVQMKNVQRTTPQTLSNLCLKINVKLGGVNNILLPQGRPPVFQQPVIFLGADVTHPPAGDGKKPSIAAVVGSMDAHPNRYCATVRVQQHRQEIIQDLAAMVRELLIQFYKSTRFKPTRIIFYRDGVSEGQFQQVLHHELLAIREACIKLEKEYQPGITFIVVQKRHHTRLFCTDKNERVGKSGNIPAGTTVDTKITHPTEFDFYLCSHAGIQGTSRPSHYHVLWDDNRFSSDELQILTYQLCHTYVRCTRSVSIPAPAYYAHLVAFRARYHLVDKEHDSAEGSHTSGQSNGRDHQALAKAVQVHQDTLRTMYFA

These are yes or no findings as the source states them, for the method shown. Binding seen in cells or lysates may run through a third protein. Some results given as binding are weak or reduced against the parent protein; the word gives no strength.

The target in assay [1] is FLAG-PICK1 WT (UniProt Q9EP80). In words: co-IP; anti-FLAG immunoprecipitation from transfected HEK293 cell extracts in IP buffer (0.5% Triton X-100, 150 mM NaCl, 20 mM HEPES pH 7.4), 4 °C; Western blot. On the technique in general: In western blotting, separated proteins are transferred to a membrane and probed.
Assay [2] has as its target FLAG-PICK1 K27A,D28A (UniProt Q9EP80). Described as above.
The target of assay [3] is His6-PICK1 (UniProt Q9EP80). In words: pull-down; His6-PICK1 immobilised on nickel beads, incubated 1 h at 4 °C with extract of HEK293 cells co-expressing GFP-Ago2 and Myc-GluA2 in co-IP buffer with defined [Ca2+]free of 0, 4, 8 and 16 μM; Western blot; only the target purified.
Assay [4] addresses FLAG-PICK1 Δ380–390 (UniProt Q9EP80). Nature of the assay: co-IP; anti-FLAG immunoprecipitation from transfected HEK293 cell extracts in IP buffer (0.5% Triton X-100, 150 mM NaCl, 20 mM HEPES pH 7.4), 4 °C; Western blot.
For assay [5], the target named is endogenous PICK1 (rat cortical neurons) (rat (endogenous in cortical neurons)) (UniProt Q9EP80). In words: co-IP; endogenous PICK1 immunoprecipitated (anti-PICK1, protein G-Sepharose) from DIV14 cortical neuron lysate in co-IP buffer with defined [Ca2+]free; 4 °C; Western blot.
Assay [6] addresses GFP-PICK1 WT (UniProt Q9EP80). Nature of the assay: co-IP; GFP-trap beads capture GFP-PICK1 from lysate of transfected cortical neurons (10 mM Tris pH 7.5, 150 mM NaCl, 0.5 mM EDTA, 0.5% Nonidet P-40), 1 h at 4 °C; basal and 10 min after NMDA-induced cLTD; Western blot.
Assay [7] has as its target endogenous PICK1 (rat cortical neurons) (rat (endogenous in cortical neurons)) (UniProt Q9EP80). In words: co-IP; endogenous PICK1 immunoprecipitated from DIV14 cortical neuron lysate in IP buffer; neurons unstimulated or stimulated with NMDA (3 min) with 1.8 mM or without extracellular Ca2+, harvested 0, 5, 10 or 30 min later; Western blot.

Turning to GFP-Ago2 (from UniProt Q9UKV8 1-859), the binding entry in assay [1], in assay [2] and in assay [3] was “binds” each time.

Turning to Myc-Ago2 (from UniProt Q9UKV8 1-859), the binding entry in assay [1] and in assay [4] was “binds” each time.

Consider “Myc-GluA2 (from UniProt P19491 22-883) (receptor)”, for which the binding result in assay [1] was “binds”; in assay [2], “no binding”; in assay [3] it was “binds”.

In the case of “endogenous Ago2 (rat cortical neurons) (from UniProt Q9QZ81 1-860)”, the binding entry in assay [5], in assay [6] and in assay [7] was “binds” each time.

Regarding “endogenous GluA2 (rat cortical neurons) (from UniProt P19491 22-883) (receptor)”, the binding result in assay [5] and in assay [6] was “binds” throughout.
